Data as given in the supplement of paper PMC6411743.
± gives the standard deviation of the averaged measurements. This is one part of the list.

By UniProt entry, the sequences of proteins in these tests, tags left out. Where a name states a change or a piece, a line headed by the entry shows the natural chain unless it says otherwise.
UniProt Q9NYR9: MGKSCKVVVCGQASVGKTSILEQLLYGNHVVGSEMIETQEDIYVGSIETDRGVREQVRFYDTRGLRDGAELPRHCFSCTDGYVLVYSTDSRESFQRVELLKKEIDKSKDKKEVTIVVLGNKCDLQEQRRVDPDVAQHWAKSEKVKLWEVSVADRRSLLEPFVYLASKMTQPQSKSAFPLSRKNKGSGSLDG
UniProt Q9NZ08: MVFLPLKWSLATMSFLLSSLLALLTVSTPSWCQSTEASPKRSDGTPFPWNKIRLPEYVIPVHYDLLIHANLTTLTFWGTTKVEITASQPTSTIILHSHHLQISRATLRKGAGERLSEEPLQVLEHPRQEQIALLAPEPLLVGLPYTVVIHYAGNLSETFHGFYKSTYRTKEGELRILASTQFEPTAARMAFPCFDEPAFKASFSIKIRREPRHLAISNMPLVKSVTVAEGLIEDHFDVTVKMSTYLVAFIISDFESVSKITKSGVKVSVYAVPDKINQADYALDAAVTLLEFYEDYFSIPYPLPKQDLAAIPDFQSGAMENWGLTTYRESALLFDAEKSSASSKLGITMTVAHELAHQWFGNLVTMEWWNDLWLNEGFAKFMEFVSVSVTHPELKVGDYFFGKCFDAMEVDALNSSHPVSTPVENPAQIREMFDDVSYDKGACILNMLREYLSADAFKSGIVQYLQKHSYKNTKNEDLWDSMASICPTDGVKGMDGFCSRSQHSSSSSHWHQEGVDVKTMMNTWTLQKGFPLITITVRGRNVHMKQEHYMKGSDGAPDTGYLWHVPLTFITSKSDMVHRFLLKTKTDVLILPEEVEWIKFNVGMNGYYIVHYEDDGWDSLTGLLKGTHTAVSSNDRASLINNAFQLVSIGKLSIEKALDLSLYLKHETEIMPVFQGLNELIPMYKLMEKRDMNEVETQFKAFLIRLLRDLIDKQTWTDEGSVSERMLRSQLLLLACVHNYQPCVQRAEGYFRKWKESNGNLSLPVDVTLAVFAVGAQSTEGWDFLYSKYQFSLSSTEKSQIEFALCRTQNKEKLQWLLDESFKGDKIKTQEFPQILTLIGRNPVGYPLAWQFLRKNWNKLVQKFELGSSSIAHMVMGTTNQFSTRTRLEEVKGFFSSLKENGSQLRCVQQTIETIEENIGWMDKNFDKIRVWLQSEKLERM
UniProt Q9UBF2: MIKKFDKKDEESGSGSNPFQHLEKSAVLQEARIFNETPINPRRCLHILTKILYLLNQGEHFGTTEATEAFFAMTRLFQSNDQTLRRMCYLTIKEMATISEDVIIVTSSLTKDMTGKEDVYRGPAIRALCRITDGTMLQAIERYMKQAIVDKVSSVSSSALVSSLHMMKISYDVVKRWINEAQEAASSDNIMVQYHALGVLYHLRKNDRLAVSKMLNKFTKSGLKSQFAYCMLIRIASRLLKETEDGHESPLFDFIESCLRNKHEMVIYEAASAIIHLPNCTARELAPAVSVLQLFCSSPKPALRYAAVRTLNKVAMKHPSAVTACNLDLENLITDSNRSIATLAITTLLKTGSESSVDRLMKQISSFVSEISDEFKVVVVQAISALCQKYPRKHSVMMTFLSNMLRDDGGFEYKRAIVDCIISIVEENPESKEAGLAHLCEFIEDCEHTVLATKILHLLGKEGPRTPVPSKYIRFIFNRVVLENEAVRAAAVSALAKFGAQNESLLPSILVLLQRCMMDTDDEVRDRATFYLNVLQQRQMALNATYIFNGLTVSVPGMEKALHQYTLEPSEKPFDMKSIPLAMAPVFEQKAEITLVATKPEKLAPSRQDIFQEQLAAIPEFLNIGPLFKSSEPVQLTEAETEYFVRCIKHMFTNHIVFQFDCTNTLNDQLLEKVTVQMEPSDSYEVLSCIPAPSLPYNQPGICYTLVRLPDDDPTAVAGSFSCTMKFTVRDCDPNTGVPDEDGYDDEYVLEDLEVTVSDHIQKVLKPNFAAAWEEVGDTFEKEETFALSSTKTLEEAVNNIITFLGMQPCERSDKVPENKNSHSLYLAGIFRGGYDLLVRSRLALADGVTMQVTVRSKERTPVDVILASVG
UniProt Q9NZJ7, whole entry: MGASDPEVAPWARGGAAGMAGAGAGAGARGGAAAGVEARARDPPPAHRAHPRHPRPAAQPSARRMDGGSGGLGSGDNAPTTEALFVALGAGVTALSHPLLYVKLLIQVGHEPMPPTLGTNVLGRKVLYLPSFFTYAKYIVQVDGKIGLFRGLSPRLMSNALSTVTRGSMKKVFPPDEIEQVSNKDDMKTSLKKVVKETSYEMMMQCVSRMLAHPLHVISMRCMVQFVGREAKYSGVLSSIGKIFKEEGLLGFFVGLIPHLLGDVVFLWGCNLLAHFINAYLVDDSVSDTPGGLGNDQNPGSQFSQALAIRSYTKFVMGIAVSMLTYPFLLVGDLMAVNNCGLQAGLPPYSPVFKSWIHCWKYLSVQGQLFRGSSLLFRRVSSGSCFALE
UniProt Q9UKK3: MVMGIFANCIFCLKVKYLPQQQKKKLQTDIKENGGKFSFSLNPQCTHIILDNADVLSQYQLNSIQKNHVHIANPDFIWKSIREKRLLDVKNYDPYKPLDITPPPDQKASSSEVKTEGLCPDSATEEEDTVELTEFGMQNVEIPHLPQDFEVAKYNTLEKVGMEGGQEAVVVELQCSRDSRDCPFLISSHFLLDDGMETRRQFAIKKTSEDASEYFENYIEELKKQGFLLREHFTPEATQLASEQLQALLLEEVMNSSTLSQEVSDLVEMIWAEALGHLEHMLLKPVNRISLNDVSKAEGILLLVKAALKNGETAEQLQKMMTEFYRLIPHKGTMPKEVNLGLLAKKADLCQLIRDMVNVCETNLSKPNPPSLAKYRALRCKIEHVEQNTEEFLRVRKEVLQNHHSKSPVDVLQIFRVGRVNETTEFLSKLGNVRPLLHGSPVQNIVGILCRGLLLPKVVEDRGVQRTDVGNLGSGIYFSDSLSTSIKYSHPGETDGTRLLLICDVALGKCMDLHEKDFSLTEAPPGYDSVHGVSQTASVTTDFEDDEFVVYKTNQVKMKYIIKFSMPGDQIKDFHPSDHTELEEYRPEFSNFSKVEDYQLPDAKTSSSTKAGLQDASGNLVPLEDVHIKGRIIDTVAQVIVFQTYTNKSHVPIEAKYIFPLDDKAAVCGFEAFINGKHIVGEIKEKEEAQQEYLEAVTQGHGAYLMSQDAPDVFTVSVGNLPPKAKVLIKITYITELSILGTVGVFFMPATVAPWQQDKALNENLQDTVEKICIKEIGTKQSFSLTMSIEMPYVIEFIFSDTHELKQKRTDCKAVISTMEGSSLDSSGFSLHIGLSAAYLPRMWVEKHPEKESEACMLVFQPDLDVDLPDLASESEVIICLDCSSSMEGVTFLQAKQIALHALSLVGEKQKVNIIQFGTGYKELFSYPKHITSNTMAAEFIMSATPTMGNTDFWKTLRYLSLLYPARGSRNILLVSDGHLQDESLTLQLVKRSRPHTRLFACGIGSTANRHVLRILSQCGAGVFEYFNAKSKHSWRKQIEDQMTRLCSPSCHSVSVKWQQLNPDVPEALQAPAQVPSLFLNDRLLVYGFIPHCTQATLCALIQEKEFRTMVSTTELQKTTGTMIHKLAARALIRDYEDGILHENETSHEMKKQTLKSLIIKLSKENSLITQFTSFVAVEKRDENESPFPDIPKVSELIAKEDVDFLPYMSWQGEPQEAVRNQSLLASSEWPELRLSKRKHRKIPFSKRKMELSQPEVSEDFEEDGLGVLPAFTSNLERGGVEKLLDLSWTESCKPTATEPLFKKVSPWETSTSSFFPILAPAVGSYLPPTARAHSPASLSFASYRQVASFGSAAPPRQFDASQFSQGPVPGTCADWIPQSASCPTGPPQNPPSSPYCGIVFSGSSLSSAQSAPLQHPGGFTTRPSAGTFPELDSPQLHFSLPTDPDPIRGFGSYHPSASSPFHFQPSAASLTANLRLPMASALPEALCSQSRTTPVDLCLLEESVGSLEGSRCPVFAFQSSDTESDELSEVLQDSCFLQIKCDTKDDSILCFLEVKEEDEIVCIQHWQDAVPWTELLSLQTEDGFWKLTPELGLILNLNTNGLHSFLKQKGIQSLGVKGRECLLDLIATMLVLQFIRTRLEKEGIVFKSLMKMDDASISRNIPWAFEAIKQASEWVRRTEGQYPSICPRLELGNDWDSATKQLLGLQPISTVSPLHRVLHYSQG
UniProt Q9UHY7: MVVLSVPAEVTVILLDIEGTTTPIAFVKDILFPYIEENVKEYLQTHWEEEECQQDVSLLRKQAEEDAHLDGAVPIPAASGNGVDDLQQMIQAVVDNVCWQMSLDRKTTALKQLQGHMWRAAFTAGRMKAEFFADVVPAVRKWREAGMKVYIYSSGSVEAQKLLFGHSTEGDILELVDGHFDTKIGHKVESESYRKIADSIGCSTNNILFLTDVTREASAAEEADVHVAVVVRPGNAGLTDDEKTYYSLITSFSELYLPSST
UniProt Q9NXR1: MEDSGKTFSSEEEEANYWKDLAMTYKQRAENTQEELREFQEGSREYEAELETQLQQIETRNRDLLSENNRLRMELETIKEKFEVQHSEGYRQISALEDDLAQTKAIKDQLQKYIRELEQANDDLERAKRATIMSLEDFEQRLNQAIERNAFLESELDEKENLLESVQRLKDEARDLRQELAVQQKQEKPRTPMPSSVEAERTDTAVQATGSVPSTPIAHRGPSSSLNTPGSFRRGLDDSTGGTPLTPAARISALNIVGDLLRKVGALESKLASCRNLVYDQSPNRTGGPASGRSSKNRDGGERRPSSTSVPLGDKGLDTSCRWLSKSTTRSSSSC
UniProt Q9NX74: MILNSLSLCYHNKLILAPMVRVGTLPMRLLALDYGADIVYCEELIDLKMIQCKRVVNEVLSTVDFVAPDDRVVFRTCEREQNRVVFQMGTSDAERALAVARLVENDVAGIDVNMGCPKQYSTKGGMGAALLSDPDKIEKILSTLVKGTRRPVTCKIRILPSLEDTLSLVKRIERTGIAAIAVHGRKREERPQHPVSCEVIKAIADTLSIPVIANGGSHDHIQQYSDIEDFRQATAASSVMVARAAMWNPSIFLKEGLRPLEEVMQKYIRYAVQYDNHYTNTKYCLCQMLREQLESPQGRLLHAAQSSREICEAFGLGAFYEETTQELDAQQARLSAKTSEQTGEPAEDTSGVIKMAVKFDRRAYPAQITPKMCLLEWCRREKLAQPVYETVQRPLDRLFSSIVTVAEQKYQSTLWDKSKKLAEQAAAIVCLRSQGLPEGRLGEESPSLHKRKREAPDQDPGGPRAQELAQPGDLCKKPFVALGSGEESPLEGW
UniProt Q9UK58: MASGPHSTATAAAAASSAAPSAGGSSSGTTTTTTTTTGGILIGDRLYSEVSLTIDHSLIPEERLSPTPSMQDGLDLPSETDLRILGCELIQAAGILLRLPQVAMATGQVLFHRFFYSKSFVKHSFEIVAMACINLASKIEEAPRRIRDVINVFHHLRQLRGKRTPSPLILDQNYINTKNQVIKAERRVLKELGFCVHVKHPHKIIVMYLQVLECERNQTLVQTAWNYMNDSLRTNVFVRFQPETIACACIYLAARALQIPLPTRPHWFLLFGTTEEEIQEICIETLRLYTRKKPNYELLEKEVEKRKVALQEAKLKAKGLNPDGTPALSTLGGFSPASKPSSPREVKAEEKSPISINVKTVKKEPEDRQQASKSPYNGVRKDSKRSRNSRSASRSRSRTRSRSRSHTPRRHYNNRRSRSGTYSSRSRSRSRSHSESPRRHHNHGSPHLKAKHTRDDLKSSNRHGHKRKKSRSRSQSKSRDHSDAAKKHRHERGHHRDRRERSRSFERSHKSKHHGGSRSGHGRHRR
UniProt Q9NZ43: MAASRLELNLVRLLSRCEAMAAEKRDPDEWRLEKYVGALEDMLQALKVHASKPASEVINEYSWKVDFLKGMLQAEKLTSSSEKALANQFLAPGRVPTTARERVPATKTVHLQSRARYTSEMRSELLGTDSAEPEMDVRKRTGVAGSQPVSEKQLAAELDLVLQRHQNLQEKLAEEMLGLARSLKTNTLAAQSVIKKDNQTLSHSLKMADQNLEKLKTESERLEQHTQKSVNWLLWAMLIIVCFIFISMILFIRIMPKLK
UniProt Q9NYB0: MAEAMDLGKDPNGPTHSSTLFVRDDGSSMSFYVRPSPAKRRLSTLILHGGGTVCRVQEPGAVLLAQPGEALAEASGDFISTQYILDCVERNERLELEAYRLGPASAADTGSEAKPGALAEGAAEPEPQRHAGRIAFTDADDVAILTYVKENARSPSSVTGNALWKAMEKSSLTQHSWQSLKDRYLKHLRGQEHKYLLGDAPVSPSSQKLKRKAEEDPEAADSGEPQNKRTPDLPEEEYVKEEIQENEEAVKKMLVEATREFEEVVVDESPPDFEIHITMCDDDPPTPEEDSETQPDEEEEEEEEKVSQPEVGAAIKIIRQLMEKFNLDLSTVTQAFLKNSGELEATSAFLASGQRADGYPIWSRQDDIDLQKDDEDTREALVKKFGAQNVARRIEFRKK
UniProt Q9UK45: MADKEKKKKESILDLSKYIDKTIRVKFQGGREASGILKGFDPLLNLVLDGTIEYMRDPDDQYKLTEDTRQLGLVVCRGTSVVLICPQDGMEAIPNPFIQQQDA

Compound: Nc1nc2c(ncn2[C@@H]2O[C@H](COP(=O)(O)OP(=O)(O)OP(=O)(O)O)[C@@H](O)[C@H]2O)c(=O)[nH]1 [guanosine triphosphate]
Experiment: NP40-soluble protein abundance relative to vehicle (solubility fold change) (ratio); higher = more soluble protein in presence of GTP
Procedure, shortened: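 Jurkat crude lysate prepared with a Dounce homogeniser was treated at eight concentrations spanning 0.1 to 10 mM, 10 min at room temperature then 3 min at 37 °C. Solubilisation with 0.8% NP40 and benzonase and ultracentrifugation preceded TMT labelling of the supernatant for LC-MS/MS. Fold change against the detergent-processed vehicle was determined per replicate from vsn-normalised intensities, across three independent experiments.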

Target	NP40-soluble protein abundance (concentration: 0.1mM)	NP40-soluble protein abundance (concentration: 0.5mM)	NP40-soluble protein abundance (concentration: 1mM)	NP40-soluble protein abundance (concentration: 2mM)	NP40-soluble protein abundance (concentration: 4mM)	NP40-soluble protein abundance (concentration: 6mM)	NP40-soluble protein abundance (concentration: 8mM)	NP40-soluble protein abundance (concentration: 10mM)
SEC63 (UniProt Q9UGP8)	0.964 ± 0.023	0.977 ± 0.022	0.935 ± 0.045	0.926 ± 0.036	0.913 ± 0.073	0.927 ± 0.026	0.93 ± 0.022	0.897 ± 0.03
LYAR (UniProt Q9NX58)	1.05 ± 0.037	1.05 ± 0.1	1.08 ± 0.1	1.16 ± 0.077	1.14 ± 0.053	1.17 ± 0.068	1.17 ± 0.14	1.27 ± 0.14
UniProt Q9NYR9 and related entries	1.09 ± 0.056	1.1 ± 0.044	1.1 ± 0.047	1.11 ± 0.06	1.14 ± 0.045	1.11 ± 0.076	1.13 ± 0.071	1.09 ± 0.093
LRWD1 (UniProt Q9UFC0)	1.05 ± 0.011	1.04 ± 0.012	1.01 ± 0.017	1.03 ± 0.027	1.062 ± 0.0054	1 ± 0.012	1.04 ± 0.022	1.02 ± 0.015
UniProt Q9NZ08 and related entries	0.95 ± 0.028	0.948 ± 0.023	0.924 ± 0.011	0.923 ± 0.026	0.912 ± 0.022	0.899 ± 0.026	0.8882 ± 0.0061	0.875 ± 0.04
PLXNA1 (UniProt Q9UIW2)	1.02 ± 0.034	0.979 ± 0.067	1.01 ± 0.024	1.07 ± 0.081	1.02 ± 0.082	0.97 ± 0.092	1.03 ± 0.071	1.01 ± 0.047
RCC2 (UniProt Q9P258)	1.02 ± 0.078	1.03 ± 0.062	0.902 ± 0.084	0.882 ± 0.16	0.842 ± 0.22	0.883 ± 0.11	0.897 ± 0.083	0.851 ± 0.11
UniProt Q9UM21	1.02 ± 0.027	1.03 ± 0.034	1.015 ± 0.0023	0.987 ± 0.017	0.958 ± 0.027	0.961 ± 0.018	0.947 ± 0.008	0.947 ± 0.046
COPG2 (UniProt Q9UBF2)	1.062 ± 0.0092	1.07 ± 0.055	1 ± 0.032	1.08 ± 0.088	1.08 ± 0.075	1.04 ± 0.094	1.03 ± 0.072	1.02 ± 0.043
UniProt Q9NZJ7 and related entries	1.01 ± 0.087	0.963 ± 0.11	0.976 ± 0.078	0.984 ± 0.13	0.938 ± 0.07	0.969 ± 0.084	1.03 ± 0.12	0.938 ± 0.051
PARP4 (UniProt Q9UKK3)	1.17 ± 0.18	1.11 ± 0.16	1.12 ± 0.2	1.18 ± 0.093	1.23 ± 0.16	1.17 ± 0.091	1.09 ± 0.14	1.44 ± 0.15
UniProt Q9UHC7 and related entries	1.06 ± 0.019	1.161 ± 0.0086	1.12 ± 0.013	1.09 ± 0.034	1.13 ± 0.053	1.08 ± 0.019	1.18 ± 0.075	1.11 ± 0.076
UniProt Q9UBL0 and related entries	0.958 ± 0.092	0.962 ± 0.076	0.954 ± 0.1	0.901 ± 0.11	0.904 ± 0.11	0.978 ± 0.13	0.905 ± 0.14	0.885 ± 0.11
RAB23 (UniProt Q9ULC3)	0.966 ± 0.022	1 ± 0.061	0.914 ± 0.04	0.949 ± 0.078	0.839 ± 0.07	0.877 ± 0.049	0.862 ± 0.1	0.806 ± 0.13
ENOPH1 (UniProt Q9UHY7)	0.969 ± 0.037	0.948 ± 0.044	0.952 ± 0.099	0.91 ± 0.084	0.866 ± 0.1	0.901 ± 0.1	0.856 ± 0.1	0.857 ± 0.1
HECTD1 (UniProt Q9ULT8)	1.04 ± 0.011	1.03 ± 0.024	1.02 ± 0.031	1.02 ± 0.042	1.02 ± 0.019	0.994 ± 0.027	0.987 ± 0.04	0.985 ± 0.031
GTF3C4 (UniProt Q9UKN8)	1.05 ± 0.014	1.05 ± 0.043	1.05 ± 0.034	1.06 ± 0.057	1.06 ± 0.055	1.05 ± 0.056	1.03 ± 0.011	1.04 ± 0.054
UniProt Q9NXR1 and related entries	1.03 ± 0.082	1.02 ± 0.081	1.13 ± 0.1	1.09 ± 0.017	0.995 ± 0.031	1.06 ± 0.095	1.07 ± 0.15	1.11 ± 0.11
UniProt Q9UHA4 and related entries	0.856 ± 0.094	0.878 ± 0.2	0.941 ± 0.07	0.856 ± 0.093	0.869 ± 0.093	0.865 ± 0.065	0.89 ± 0.13	0.842 ± 0.098
UniProt Q9NX74	1.03 ± 0.016	1.05 ± 0.039	1.02 ± 0.022	1.01 ± 0.039	1.01 ± 0.055	0.991 ± 0.055	1.02 ± 0.044	0.964 ± 0.045
UniProt Q9ULE6	0.969 ± 0.13	1.19 ± 0.15	1.03 ± 0.091	1.04 ± 0.17	1.09 ± 0.065	1.07 ± 0.075	1 ± 0.13	0.992 ± 0.1
UniProt Q9NVM4 and related entries	1.07 ± 0.025	1.02 ± 0.029	0.98767 ± 0.0005	1.01 ± 0.068	0.963 ± 0.055	0.942 ± 0.05	0.936 ± 0.047	0.913 ± 0.07
UniProt Q9UK58 and related entries	1.06 ± 0.09	1.08 ± 0.053	1.05 ± 0.11	1.07 ± 0.099	1.04 ± 0.093	0.9 ± 0.1	0.915 ± 0.054	0.856 ± 0.092
UniProt Q9NW75 and related entries	0.879 ± 0.058	0.9052 ± 0.0019	0.896 ± 0.019	0.874 ± 0.0054	0.83 ± 0.029	0.8403 ± 0.0062	0.807 ± 0.031	0.8354 ± 0.0071
USE1 (UniProt Q9NZ43)	0.975 ± 0.025	0.954 ± 0.073	1.01 ± 0.023	1.06 ± 0.032	1.03 ± 0.037	1.05 ± 0.017	1.07 ± 0.082	1.08 ± 0.069
TERF2IP (UniProt Q9NYB0)	0.968 ± 0.047	0.967 ± 0.073	0.979 ± 0.057	0.964 ± 0.097	0.939 ± 0.066	0.966 ± 0.068	0.979 ± 0.056	0.977 ± 0.077
UniProt Q9ULH7-4|Q9ULH7-5	0.946 ± 0.017	0.977 ± 0.044	0.982 ± 0.049	0.954 ± 0.059	0.927 ± 0.041	0.945 ± 0.059	0.966 ± 0.037	0.987 ± 0.033
UniProt Q9NWV4	0.937 ± 0.062	0.939 ± 0.053	0.912 ± 0.063	0.903 ± 0.066	0.899 ± 0.061	0.912 ± 0.061	0.889 ± 0.094	0.902 ± 0.083
PPM1H (UniProt Q9ULR3)	0.95 ± 0.051	1.05 ± 0.049	0.953 ± 0.026	0.9662 ± 0.0058	0.877 ± 0.029	0.953 ± 0.029	0.86 ± 0.041	0.922 ± 0.023
UniProt Q9UK45 and related entries	1.05 ± 0.22	1 ± 0.15	1.12 ± 0.24	1.07 ± 0.21	1.04 ± 0.2	1.08 ± 0.17	1.06 ± 0.22	1.07 ± 0.22

Random excerpt: two entries already listed, in no set order.
Target	NP40-soluble protein abundance (concentration: 0.1mM)	NP40-soluble protein abundance (concentration: 0.5mM)	NP40-soluble protein abundance (concentration: 1mM)	NP40-soluble protein abundance (concentration: 2mM)	NP40-soluble protein abundance (concentration: 4mM)	NP40-soluble protein abundance (concentration: 6mM)	NP40-soluble protein abundance (concentration: 8mM)	NP40-soluble protein abundance (concentration: 10mM)
UniProt Q9NX74	1.03 ± 0.016	1.05 ± 0.039	1.02 ± 0.022	1.01 ± 0.039	1.01 ± 0.055	0.991 ± 0.055	1.02 ± 0.044	0.964 ± 0.045
UniProt Q9NVM4 and related entries	1.07 ± 0.025	1.02 ± 0.029	0.98767 ± 0.0005	1.01 ± 0.068	0.963 ± 0.055	0.942 ± 0.05	0.936 ± 0.047	0.913 ± 0.07
